The values that follow come from PubChem BioAssay AID2685 (National Center for Advancing Translational Sciences (NCATS), 2010).

The assay can be described thus: qHTS Assay for Lipid Storage Modulators in Drosophila S3 Cells.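 For cell number change: cells counted by Cell Tracker Red CMTPX staining in the red channel.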 The settings on record: BODIPY lipid droplet fluorescence, 18-24 h; for cell number change: measured here: cell count max response, cells fed with added oleic acid. A digest of the protocol: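 Drosophila S3 cells got compounds at several concentrations plus oleic acid (400 uM solution). Laser-scanning cytometry with 488 nm excitation read lipid droplets at 500-530 nm and cells at 575-640 nm. Percent activity was relative to 20 uM Triacsin C.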

Where [1] appears, read: measured here: cell number channel AC50, cells fed with added oleic acid.
Where [2] appears, read: measured here: lipid fluorescence (Fed channel) AC50, cells fed with added oleic acid.

The other results are listed elsewhere or left out. These are further read-outs of the screen, such as a control signal, another cell line or another target. No call is given for them. Most of these compounds were active or inconclusive in the main read-out, so they are no random draw. Potencies come from curve fits of mixed quality, noted in brackets.

`CC(C)CN(C(=O)CSc1nnnn1C)C1CCS(=O)(=O)C1` (stereo not given): the cell number change is -13.2%.
In the case of `CC1(C)CC(=O)C(N=Nc2ccc(S(=O)(=O)N3CCCCCC3)cc2)=C(O)C1`, the cell number change worked out at 27.2%. For the same molecule, under setting [1], the AC50 was 2.31 µM [rising, full curve, poor fit].
Turning to `COc1ccccc1CCNC(=O)c1csc2c1CCCC2`, the cell number change was -6.78%. Further, the AC50 under setting [2] was 0.58 µM [falling, single point].
Turning to `O=[N+]([O-])c1ccccc1OCCCOc1cccc2cccnc12`, the cell number change is -9.49%. Also, under setting [2], the AC50 was 1.64 µM [falling, partial curve].
Turning to `COc1ccccc1/C=C/C=N/N1CCN(Cc2cccc3ccccc23)CC1`, the cell number change is -4.9%. For the same molecule, the AC50 under setting [1] is 0.00461 µM [falling, full curve, poor fit].
As for `CCc1nnc(N/N=C/c2c(Cl)cccc2Cl)n1N`, the cell number change is -20%.
The same measure, in the same setting: with `CCOc1ccc(C(=O)NCC(=O)OCc2cc([N+](=O)[O-])cc3c2OCOC3)cc1OCC` the figure was 22.5%.
For the molecule `Cc1nc2ccc(S(=O)(=O)NCC(=O)NCc3ccc(Cl)cc3)cc2s1`, the cell number change is 19.8%. Under setting [2], the AC50 is 29.1 µM [rising, single point].
Consider `Cc1c(CC(=O)N2CCN(C(=O)C3COc4ccccc4O3)CC2)c(=O)oc2c(C)c(O)ccc12` (stereo not given), for which the cell number change was -3.67%.
For the molecule `CN(C)[C@H]1N(C(=O)c2ccc(Br)cc2)N=C2c3ccccc3S(=O)(=O)N21`, the cell number change was 75.3%. Moreover, the AC50 under setting [1] is 3.26 µM [rising, full curve]. The AC50 under setting [2] was 0.517 µM [rising, single point].
Take `CCN(CC)S(=O)(=O)c1cc(NC(=O)CNc2cccc(S(=O)(=O)N3CCCC3)c2)ccc1C`: the cell number change is 58.2%. Moreover, under setting [1], the AC50 is 0.82 µM [rising, full curve].
Regarding `CCSc1nc(-c2ccc(OC)cc2)cc(-c2ccc(OC)cc2)c1C#N`, the cell number change is 79.7%. The AC50 under setting [1] was 29.1 µM [rising, single point]. Also, under setting [2], the AC50 was 20.6 µM [rising, partial curve].
For the molecule `CCN(CC(=O)Nc1ccccc1OC)C(=O)c1ccccc1Sc1ccccc1C#N`, the cell number change was -11.1%. Moreover, the AC50 under setting [2] is 6.51 µM [falling, partial curve, poor fit].
Take `Cn1nnc2c[n+](CC(=O)c3ccc(Cl)cc3)cc(Br)c21`: the cell number change is -12.7%. Further, the AC50 under setting [1] is 0.461 µM [falling, partial curve]. Also, the AC50 under setting [2] is 1.84 µM [falling, partial curve, poor fit].
For the molecule `NC(=O)CCS(=O)(=O)c1ccc(Cl)cc1`, the cell number change was -27.1%. Moreover, the AC50 under setting [1] was 0.366 µM [falling, full curve, poor fit]. The AC50 under setting [2] is 0.259 µM [falling, full curve].
On to `COC(=O)c1sc(NC(=S)NC(=O)c2cccc(C)c2)nc1C`, for which the cell number change was -3.83%.
With `CCOC(=O)c1c(-c2ccc(OC)cc2)oc2cc(Br)c(O)cc12`, the cell number change is -47.1%. For the same molecule, the AC50 under setting [1] is 20.6 µM [falling, single point]. Besides, the AC50 under setting [2] is 18.4 µM [falling, single point].
As to `Cn1c(SCc2nc3ccccc3s2)nnc1-c1cccs1`, the cell number change was -12%.
In the case of `Cc1ccc(-n2c([C@@H]3C[C@H]3c3ccccc3)n[nH]c2=S)cc1`, the cell number change is -11.2%. For the same molecule, under setting [2], the AC50 is 0.00411 µM [falling, full curve, poor fit].
As to `Oc1ccccc1OCCOc1ccccc1OCCOc1ccccc1O`, the cell number change was 11.8%. In addition, under setting [2], the AC50 was 6.51 µM [falling, partial curve].
On to `COc1ccc2c(c1)SCCC2=O`, for which the AC50 under setting [1] was 6.51 µM [falling, single point].
For the molecule `CCOC(=O)c1nnn(-c2nonc2N)c1-c1ccc(OCC)cc1`, the cell number change stood at 137%.
`CC1CCN(C(=O)COC(=O)Cc2c[nH]c3ccccc23)CC1`: the cell number change is -2.48%. In addition, the AC50 under setting [2] was 0.058 µM [rising, full curve, poor fit].
With `CN(C)c1nc(C(=O)O)nc(N2CCOCC2)n1`, the cell number change worked out at 14.1%.
Regarding `Cc1cc([N+](=O)[O-])nn1CC(=O)NCc1ccccc1`, the cell number change was -14.3%.
In the case of `CC1(C)CC2CC(C)(CN2S(=O)(=O)c2ccc(C(=O)Nc3ccc(Cl)c(S(=O)(=O)N4CCOCC4)c3)cc2)C1` (stereo not given), under setting [2], the AC50 is 7.31 µM [falling, partial curve].
For the molecule `COc1ccccc1N1CCN(C(=O)c2ccncc2)CC1`, the cell number change was determined as 0.323%. Besides, the AC50 under setting [2] is 3.26 µM [falling, single point].
In the case of `Clc1cccc(NCc2nnc(SCc3ccccc3Cl)o2)c1`, the cell number change is 63%. In addition, the AC50 under setting [1] was 20.6 µM [rising, single point].
For the molecule `CC(C)(C)c1nnc(NC(=O)CCS(=O)(=O)Cc2ccccc2)s1`, the cell number change came out at 2.14%. Besides, the AC50 under setting [2] was 6.51 µM [rising, single point].
On to `CC(=O)c1sc(N/N=C\c2ccc(N(C)C)cc2)nc1C`, for which the cell number change was -20.8%. For the same molecule, under setting [2], the AC50 is 29.1 µM [falling, single point].
As for `COc1cccc(N2CCN(Cc3ccsc3)CC2)c1`, the cell number change amounted to 13.5%. Besides, the AC50 under setting [2] was 0.517 µM [falling, partial curve].
For the molecule `O=C(C1CCC1)N1CCN(Cc2ccccc2)CC1`, the cell number change was -0.975%. The AC50 under setting [2] was 0.0058 µM [rising, full curve, poor fit].
`COc1ccc2c(c1)c(C(=O)N/N=C/c1ccc(O)c(O)c1)c(C)n2C`: the cell number change was -9.16%. Further, under setting [1], the AC50 was 1.03 µM [falling, full curve].
For the molecule `C=CC1C(N2CCOCC2)C(C)(C)S1(=O)=O` (stereo not given), the cell number change is -2.98%. Moreover, the AC50 under setting [2] was 29.1 µM [falling, single point].
Turning to `CN(CC(=O)Nc1ccc(Cl)c(C(F)(F)F)c1)C(=O)Cc1c[nH]c2ccccc12`, the cell number change was found to be 22.5%. Also, the AC50 under setting [2] was 1.64 µM [rising, partial curve, poor fit].
Consider `CCCn1c2ccccc2c2cnn(CC(=O)NC3CCC(C)CC3)c(=O)c21` (stereo not given), for which the cell number change was found to be 4.48%.
On to `O=C(Cc1cccs1)N(Cc1cccs1)C1(C(=O)NC2CCCCC2)CCCCC1`, for which the cell number change was -51%. In addition, the AC50 under setting [1] was 18.4 µM [falling, partial curve, poor fit].
Consider `Oc1ccccc1CNc1ncc(Br)cc1Br`, for which the cell number change was -42.4%. For the same molecule, the AC50 under setting [1] was 29.1 µM [falling, single point]. The AC50 under setting [2] was 29.1 µM [falling, single point].
For `O=C(CSc1nnc(CNC(=O)c2ccccc2)o1)NCc1ccc2c(c1)OCO2`, the cell number change was -28%. The AC50 under setting [2] is 32.6 µM [falling, partial curve, poor fit].
Regarding `Cc1cc(Oc2ccc(-c3ccccc3)cc2)n2ncnc2n1`, the cell number change was -2.06%. For the same molecule, the AC50 under setting [2] was 18.4 µM [falling, single point].
As to `Nc1cc2c(cc1Cl)N(Cc1ccccc1)C(=O)CO2`, the cell number change is -2.33%. The AC50 under setting [2] is 7.31 µM [rising, partial curve].
Turning to `CN(C)S(=O)(=O)c1ccc(Cl)c(-c2nnc3n2CCCCC3)c1`, the cell number change was -33.3%. The AC50 under setting [1] was 29.1 µM [falling, single point].
With `C/C(=N\NC(=O)C(N)=O)c1cccc([N+](=O)[O-])c1`, the cell number change was 14.2%. Besides, under setting [2], the AC50 is 0.146 µM [falling, full curve].
Turning to `CC(NC(=O)COc1ccccc1F)C1CC2CCC1C2` (stereo not given), the AC50 reads like this: under setting [1], 0.164 µM [falling, full curve, poor fit]; under setting [2], 0.13 µM [falling, full curve, poor fit].
With `COc1cc(C2NC(=O)CCC2[N+](=O)[O-])cc(OC)c1OC` (stereo not given), the cell number change is -13.9%. In addition, under setting [1], the AC50 was 4.61 µM [falling, partial curve, poor fit]. Besides, the AC50 under setting [2] is 18.4 µM [rising, partial curve].
With `Cc1ccc2c(C)nc(NC3=NCN(CCc4ccccc4)CN3)nc2c1`, the cell number change was determined as 9.12%.
On to `O=c1c2ccccc2sn1-c1ccc(S(=O)(=O)N2CCCC2)cc1`, for which the cell number change is -36.4%. The AC50 under setting [1] was 1.84 µM [falling, full curve]. Further, the AC50 under setting [2] was 1.64 µM [falling, partial curve, poor fit].
On to `CC(=O)C1=NN(c2ccccc2)C(c2ccc3c(c2)OCO3)N1c1ccccc1` (stereo not given), for which the cell number change stood at 23%. Also, the AC50 under setting [2] was 2.91 µM [rising, full curve].
With `CCOC(=O)C1CCN(S(=O)(=O)c2ccc3c(c2)N(C(C)=O)CC(C)S3)CC1` (stereo not given), the cell number change was -28.9%. Also, the AC50 under setting [2] is 29.1 µM [falling, single point].
Consider `CC(C)(C)c1cc(C(c2cccnc2)N2CCN(CCO)CC2)cc(C(C)(C)C)c1O` (stereo not given), for which the cell number change was -67.3%. In addition, the AC50 under setting [1] is 29.1 µM [falling, single point]. Further, under setting [2], the AC50 is 29.1 µM [falling, single point].
With `CCOC(=O)c1ccc(NC(=O)CSCCC(=O)O)cc1`, the cell number change is -31%. Under setting [1], the AC50 was 0.092 µM [falling, full curve].
Consider `COCCNC(=O)CCCn1c(=O)c2ccccc2n(Cc2ccccc2C#N)c1=O`, for which the cell number change was determined as 58.6%. For the same molecule, the AC50 under setting [1] was 16.4 µM [rising, partial curve].
For the molecule `CC(=O)OCC12COC3c4ccccc4OC(C)(CC1C)C3C2C` (stereo not given), the cell number change was -2.16%. Besides, the AC50 under setting [1] was 0.651 µM [rising, full curve]. Besides, the AC50 under setting [2] is 6.51 µM [rising, single point].
`O=C(Nc1ccc(-n2nncc2-c2ccco2)cc1)c1ccc(F)cc1`: the cell number change came out at 17.3%.
In the case of `O=c1c2ccccc2[nH]c(=S)n1CCN1CCN(Cc2ccccc2)CC1`, the cell number change worked out at 52.2%. For the same molecule, the AC50 under setting [1] is 29.1 µM [rising, single point].
As for `Cc1ccc(C(=O)NNC(=O)CCCN2C(=O)/C(=C/c3ccccc3Cl)SC2=S)cc1`, the cell number change was -23.3%. The AC50 under setting [2] was 14.6 µM [falling, partial curve].
As to `O=S(=O)(c1ccccc1)N1CCN(c2cc(-c3ccccc3)nc3ncnn23)CC1`, the cell number change was -40.3%. The AC50 under setting [1] is 16.4 µM [falling, single point]. For the same molecule, the AC50 under setting [2] was 16.4 µM [falling, partial curve].
On to `Cc1ccc(-n2ncc3c2CCCC3NC(=O)CCC2=NNC(=O)CC2)cc1C` (stereo not given), for which the cell number change amounted to 7.28%. The AC50 under setting [1] was 1.3 µM [rising, partial curve]. Also, the AC50 under setting [2] was 0.92 µM [rising, full curve, poor fit].
Turning to `O=C(CN1CCC(C(=O)c2ccc(F)cc2)CC1)NCc1ccccc1F`, the cell number change is -5.65%. Moreover, the AC50 under setting [2] was 6.51 µM [rising, single point].
Consider `Cc1ccc(/C=N/NC(=O)C(C)Oc2cccc3ccccc23)o1` (stereo not given), for which the cell number change was -16.3%. The AC50 under setting [2] was 2.91 µM [rising, single point].
As for `CC(C)C(OC(=O)c1cc2occc2n1C)C(=O)NCc1ccc2c(c1)OCO2` (stereo not given), the cell number change was found to be 0.259%. Besides, the AC50 under setting [2] was 1.16 µM [falling, partial curve].
